These are yes or no findings as the source states them, for the method shown.
Biological target: cynomolgus monkey SIRPβ1-His monomer protein (cynomolgus monkey)
Assay: BLI

Row | Binder | binding
1 | Antibody 29 (scFv, V domains shown) VH: QVQLVQSGAEVKKPGASVKVSCKASGGTFSSYAISWVRQAPGQGLEWMGIINPSSSSTGYAQKFQGRVTMTRDTSTSTVYMELSSLRSEDTAVYYCARAGYYDSSGYYYSPYYGMDVWGQGTTVTVSS VL: EIVMTQSPATLSVSPGERATLSCRASQSISGSYLAWYQQKPGQAPRLLIYGASTRATGIPARFSGSGSGTEFTLTISSLQSEDFAVYYCQQYGSFPFTFGPGTKVDIK | no binding (tested: <0.02 nm at 115 s)
2 | Antibody 30 (scFv, V domains shown) VH: QVQLVQSGAEVKKPGASVKVSCKASGYTFTNFDINWVRQAPGQGLEWMGWISAYNGHTNYAQNLQGRVTMTRDTSTSTVYMELSSLRSEDTAVYYCAQEAAAGYFDYWGQGTLVTVSS VL: DIQMTQSPSSLSASVGDRVTITCRASQDIRNDLAWYQQKPGKAPKLLIYDASNLETGVPSRFSGSGSGTDFTLTISSLQPEDFATYYCQQSYGTPYTFGQGTKLEIK | no binding (tested: <0.02 nm at 115 s)
3 | Antibody 31 (scFv, V domains shown) VH: QVQLVQSGAEVKKPGASVKVSCKASGGTFRSYAISWVRQAPGQGLEWMGWMNPNSGNTGYAQKFQGRVTMTRDTSTSTVYMELSSLRSEDTAVYYCARESVLKGGMDVWGQGTTVTVSS VL: DIVMTQSPDSLAVSLGERATINCRSSQSLFHSSTNANNLAWYQQKPGQPPKLLIYWASTRESGVPDRFSGSGSGTDFTLTISSLQAEDVAVYYCQQYYITPLTFGQGTRLEIK | no binding (tested: <0.02 nm at 115 s)
4 | Antibody 33 (scFv, V domains shown) VH: QVQLVQSGAEVKKPGASVKVSCKASGYTFTSYYMHWVRQAPGQGLEWMGWMNPNSDNTGYAQKFQGRVTMTRDTSTSTVYMELSSLRSEDTAVYYCARVGVGYGYYYYGMDVWGQGTTVTVSS VL: DIQMTQSPSSLSASVGDRVTITCRAGQSIGDYLNWYQQKPGKAPKLLIYAASSLQSGVPSRFSGSGSGTDFTLTISSLQPEDFATYYCQQSYSTPWTFGQGTKVEIK | no binding (tested: <0.02 nm at 115 s)
5 | Antibody 34 (scFv, V domains shown) VH: QVQLVQSGAEVKKPGASVKVSCKASGYTFSNYYMHWVRQAPGQGLEWMGWMNPNSGNTGYAQKFQGRVTMTRDTSTSTVYMELSSLRSEDTAVYYCARASMYSSSGFDYWGQGTLVTVSS VL: DIVMTQSPLSLPVTPGEPASISCRSSQSLLHSNGYNYLDWYLQKPGQSPQLLIYLASTRAPGVPDRFSGSGSGTDFTLKISRVEAEDVGVYYCMQGSHWPPSFGQGTRLEIK | no binding (tested: <0.02 nm at 115 s)
6 | Antibody 35 (scFv, V domains shown) VH: QVQLVQSGAEVKKPGASVKVSCKASGYTFTSYYIHWVRQAPGQGLEWMGTINPSGGSTSYAQKFQGRVTMTRDTSTSTVYMELSSLRSEDTAVYYCARETSRWLRDYYYGMDVWGQGTTVTVSS VL: DIVMTQSPLSLPVTPGEPASISCRSSQSLLHSNGYNYLDWYLQKPGQSPQLLIYDASSLESGVPDRFSGSGSGTDFTLKISRVEAEDVGVYYCMQGTHWPLTFGGGTKVEIK | no binding (tested: <0.02 nm at 115 s)
7 | Antibody 36 (scFv, V domains shown) VH: QVQLVQSGAEVKKPGASVKVSCKASGYTFTDNYLHWVRQAPGQGLEWMGIIETSGGSTDYAQKFQGRVTMTRDTSTSTVYMELSSLRSEDTAVYYCARSFGGYSYDDAFDIWGQGTTVTVSS VL: DIQMTQSPSSLSASVGDRVTITCQASQGISNYLNWYQQKPGKAPKLLIYAASSLQSGVPSRFSGSGSGTDFTLTISSLQPEDFATYYCQQSYSSPYTFGQGTKVEIK | no binding (tested: <0.02 nm at 115 s)
8 | Antibody 39 (scFv, V domains shown) VH: QVQLVQSGAEVKKPGASVKVSCKASGGTFSNYGFSWVRQAPGQGLEWMGWMSPSSGNTGYAQKFQGRVTMTRDTSTSTVYMELSSLRSEDTAVYYCARERSGSYFDYWGQGTLVTVSS VL: EIVMTQSPATLSVSPGERATLSCRASQSVSSYLAWYQQKPGQAPRLLIYGTSTRATGIPARFSGSGSGTEFTLTISSLQSEDFAVYYCQQYGSLPFTFGQGTRLEIK | no binding (tested: <0.02 nm at 115 s)
9 | Antibody 41 (scFv, V domains shown) VH: QVQLVQSGAEVKKPGSSVKVSCKASGGTFSNYAISWVRQAPGQGLEWMGGIIPIFGSTASYAQKFQGRVTITADESTSTAYMELSSLRSEDTAVYYCARGVGDDTLTDWGQGTLVTVSS VL: DIVMTQSPLSLPVTPGEPASISCRSSQSLLHSNGYNYLDWYLQKPGQSPQLLIYAASSLQSGVPDRFSGSGSGTDFTLKISRVEAEDVGVYYCMQALQTPLTFGGGTKVEIK | no binding (tested: <0.02 nm at 115 s)
10 | Antibody 43 (scFv, V domains shown) VH: QVQLVQSGAEVKKPGASVKVSCKASGGTFTSYDINWVRQAPGQGLEWMGWISAYNGHTNYAQNLQGRVTMTRDTSTSTVYMELSSLRSEDTAVYYCAREDSSWYFDLWGRGTLVTVSS VL: DIQMTQSPSSLSASVGDRVTITCRASQSISSWLAWYQQKPGKAPKLLIYDASNLETGVPSRFSGSGSGTDFTLTISSLQPEDFATYYCQQSFSTPPTFGQGTKVEIK | no binding (tested: <0.02 nm at 115 s)
11 | Antibody 46 (scFv, V domains shown) VH: QVQLVQSGAEVKKPGASVKVSCKASGYTFSSYAISWVRQAPGQGLEWMGWMDPNSGNTGYAQKFQGRVTMTRDTSTSTVYMELSSLRSEDTAVYYCARESSYYYDSSGYYPGWYFDLWGRGTLVTVSS VL: DIQMTQSPSSLSASVGDRVTITCQASQDISNYLNWYQQKPGKAPKLLIYAASTLQTGVPSRFSGSGSGTDFTLTISSLQPEDFATYYCQQSYSTPWTFGPGTKVDIK | no binding (tested: <0.02 nm at 115 s)
12 | Antibody 47 (scFv, V domains shown) VH: QVQLVQSGAEVKKPGASVKVSCKASGYTFTTYGISWVRQAPGQGLEWMGWMDPNSGSTGYAQKFQGRVTMTRDTSTSTVYMELSSLRSEDTAVYYCARGRGNSYYYYYMDVWGKGTTVTVSS VL: DIQMTQSPSSLSASVGDRVTITCRASQRIGSYLNWYQQKPGKAPKLLIYGASNLQSGVPSRFSGSGSGTDFTLTISSLQPEDFATYYCQQANSFPFTFGPGTKVDIK | no binding (tested: <0.02 nm at 115 s)
13 | Antibody 48 (scFv, V domains shown) VH: QVQLVQSGAEVKKPGASVKVSCKASGYTFTSYYMHWVRQAPGQGLEWMGWMNPNSGNTGYAQKFQGRVTMTRDTSTSTVYMELSSLRSEDTAVYYCARDQMYSSYGMDVWGQGTTVTVSS VL: DIQMTQSPSSLSASVGDRVTITCRASESITNWLAWYQQKPGKAPKLLIYKASSLESGVPSRFSGSGSGTDFTLTISSLQPEDFATYYCQQSYGTPYTFGQGTKVEIK | no binding (tested: <0.02 nm at 115 s)
14 | Antibody 50 (scFv, V domains shown) VH: QVQLVQSGAEVKKPGASVKVSCKASGYTFTGYYMHWVRQAPGQGLEWMGTINPSGGSTSYAQKFQGRVTMTRDTSTSTVYMELSSLRSEDTAVYYCVKGNGYYDLWGQGTLVTVSS VL: DIQMTQSPSSLSASVGDRVTITCRASQSISSWLAWYQQKPGKAPKLLIYDTSNLQGGVPSRFSGSGSGTDFTLTISSLQPEDFATYYCQQYDSFPWTFGQGTKVEIK | no binding (tested: <0.02 nm at 115 s)
15 | Antibody 51 (scFv, V domains shown) VH: QVQLVQSGAEVKKPGASVKVSCKASGYTFTRYDINWVRQAPGQGLEWMGWMNPNSGNTGYAQKLQGRVTMTRDTSTSTVYMELSSLRSEDTAVYYCARERVGYCSSTSCLHPLDYWGQGTLVTVSS VL: DIQMTQSPSSLSASVGDRVTITCRASQGIRNDLGWYQQKPGKAPKLLIYSASNLQSGVPSRFSGSGSGTDFTLTISSLQPEDFATYYCQQSYDVPLTFGGGTKVEIK | no binding (tested: <0.02 nm at 115 s)

Reference: patent US20240400677A1
